For one substance, binding results are on record in paper PMC6678984.

Protein sequences, listed by entry. Tags and fused reporters are not part of them.
UniProt Q9Y496: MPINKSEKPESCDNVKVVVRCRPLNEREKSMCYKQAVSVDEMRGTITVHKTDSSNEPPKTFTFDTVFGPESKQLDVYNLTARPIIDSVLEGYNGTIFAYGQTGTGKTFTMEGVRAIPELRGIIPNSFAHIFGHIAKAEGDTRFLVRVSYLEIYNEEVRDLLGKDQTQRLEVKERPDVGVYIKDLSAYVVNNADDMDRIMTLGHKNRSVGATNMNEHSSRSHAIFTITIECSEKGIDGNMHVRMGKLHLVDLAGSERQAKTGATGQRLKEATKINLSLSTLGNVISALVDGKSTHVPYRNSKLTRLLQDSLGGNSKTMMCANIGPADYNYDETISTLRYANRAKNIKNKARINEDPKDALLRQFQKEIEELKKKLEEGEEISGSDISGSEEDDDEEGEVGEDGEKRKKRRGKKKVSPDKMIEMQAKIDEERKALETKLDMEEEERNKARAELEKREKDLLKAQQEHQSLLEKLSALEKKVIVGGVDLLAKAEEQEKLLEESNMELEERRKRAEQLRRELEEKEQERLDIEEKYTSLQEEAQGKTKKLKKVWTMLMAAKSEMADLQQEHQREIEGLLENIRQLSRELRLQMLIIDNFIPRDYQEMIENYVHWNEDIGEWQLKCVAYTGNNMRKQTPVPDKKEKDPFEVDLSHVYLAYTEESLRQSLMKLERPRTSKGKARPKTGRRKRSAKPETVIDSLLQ

The target of assay [1] is T1, GST-CAPK full-length (ciliopathy-associated protein kinase, intestinal cell kinase ICK), wild type (human) (UniProt Q9UPZ9).
T1 sequence: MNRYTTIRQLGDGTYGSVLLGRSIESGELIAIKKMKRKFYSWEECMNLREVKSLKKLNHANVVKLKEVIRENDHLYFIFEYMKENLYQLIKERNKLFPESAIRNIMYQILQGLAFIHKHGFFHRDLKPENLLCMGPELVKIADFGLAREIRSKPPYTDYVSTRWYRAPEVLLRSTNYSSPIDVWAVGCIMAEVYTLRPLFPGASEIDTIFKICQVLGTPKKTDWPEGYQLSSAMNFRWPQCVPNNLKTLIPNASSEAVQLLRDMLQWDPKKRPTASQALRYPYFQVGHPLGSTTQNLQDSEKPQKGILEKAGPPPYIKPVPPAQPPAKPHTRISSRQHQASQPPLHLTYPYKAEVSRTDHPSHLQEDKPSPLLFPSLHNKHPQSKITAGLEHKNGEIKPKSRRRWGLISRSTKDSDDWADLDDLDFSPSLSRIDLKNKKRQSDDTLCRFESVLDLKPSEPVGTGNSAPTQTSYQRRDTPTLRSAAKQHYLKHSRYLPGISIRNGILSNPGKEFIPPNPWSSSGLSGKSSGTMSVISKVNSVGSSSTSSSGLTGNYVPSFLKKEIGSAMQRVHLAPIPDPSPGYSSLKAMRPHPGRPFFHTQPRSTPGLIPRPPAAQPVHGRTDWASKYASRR
The assay can be described thus: pull-down; GST, GST-CAPK FL or GST-CAPK (1–291) co-expressed with HA-KIF3A in HEK293T cells; GST fusion proteins pulled down from cell lysate (50 mM Tris-HCl pH 7.4, 150 mM NaCl, 1% NP-40) with glutathione Sepharose 4B beads; HA-KIF3A on beads detected by anti-HA and anti-KIF3A Western blot. Background: Immunoblotting shows a protein as a band on a membrane.

Assay [2] concerns the target T1, GST-CAPK full-length (ciliopathy-associated protein kinase, intestinal cell kinase ICK), wild type (human). Description: pull-down; in vitro binding assay: GST, GST-CAPK FL or GST-CAPK (1–291) from HEK293T affinity-purified on glutathione Sepharose beads, incubated with cell lysate containing HA-KIF3A at 4 °C overnight, rinsed, eluted; Western blot against HA or KIF3A; only the target purified.

Results are given in words; binding and its absence hold for the method and conditions named. In cells and extracts the contact can be indirect. Some entries that bind do so weakly or less than the wild type. Sequences can lack the tags named with a protein.

As for “HA-KIF3A (kinesin family member 3A) (from UniProt Q9Y496 1-699)”, the binding entry in assay [1] and in assay [2] was “binds” throughout.
